Test results published in PubChem BioAssay AID2551 (National Center for Advancing Translational Sciences (NCATS), 2010).
Values joined by “and” are separate entries in the source; they are usually repeats but may differ in a detail not shown here. Equal entries are not always repeated. Hit rate of the full screen: of about 310,000 compounds, about 17,000 (5.5%) were called active. This list was built around the results that the source calls inconclusive (neither active nor inactive); the mix of calls is not that of the screen. The call rests on the fitted dose curve; in most records, active means well fitted inhibition curve with a large enough effect; inconclusive means small, poorly fitted or top-dose-only effect, or effect the other way; inactive means no such curve, though single readings can be large or run the other way. A potency beside an inconclusive call is a rough fit, not a confirmed value.

Chains of the proteins cited; added tags and fusions are not shown. Lines headed by an entry give the natural chain unless they say otherwise; changes in a name come on top.
UniProt P51450: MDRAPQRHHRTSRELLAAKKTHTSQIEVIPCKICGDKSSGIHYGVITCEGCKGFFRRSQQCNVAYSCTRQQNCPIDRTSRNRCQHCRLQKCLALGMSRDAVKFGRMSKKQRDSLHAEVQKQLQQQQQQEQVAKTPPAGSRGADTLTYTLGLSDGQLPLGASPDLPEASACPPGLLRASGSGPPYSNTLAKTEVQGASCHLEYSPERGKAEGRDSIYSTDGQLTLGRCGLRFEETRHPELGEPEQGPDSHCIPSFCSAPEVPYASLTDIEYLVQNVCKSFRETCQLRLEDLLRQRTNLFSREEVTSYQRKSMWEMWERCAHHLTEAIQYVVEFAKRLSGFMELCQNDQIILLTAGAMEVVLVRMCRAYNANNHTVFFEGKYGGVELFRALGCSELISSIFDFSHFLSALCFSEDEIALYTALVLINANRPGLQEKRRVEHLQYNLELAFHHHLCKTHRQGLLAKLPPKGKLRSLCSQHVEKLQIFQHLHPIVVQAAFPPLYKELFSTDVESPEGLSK

molecular target: Nuclear receptor ROR-gamma (Mus musculus) (UniProt P51450); test: qHTS for inhibitors of ROR gamma transcriptional activity; settings: Drosophila S2 Gal4-RORgamma UAS-luciferase reporter, 20 h; activity change, negative = inhibition: at 53.6 µM (top of the series); further: nearly all actives have a fitted effect of over 60% in size
In short: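 Read-out: Photinus luciferase luminescence; inhibitors lower reporter signal. Insect Schneider cells with Gal4-ROR gamma fusion under metallothionein promoter, UAS reporter; 700 uM final copper sulfate induction, 20 hr, ambient temperature.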
On the % scale 0 is the no-effect control and ±100 the full control effect; potency means the concentration at half of the fitted maximal effect.

Activity change, negative = inhibition, inconclusive:
Cc1cccc(OCC(=O)Nc2ccc3c(c2)OCO3)c1C 52.2% [activator]

Activity change, negative = inhibition, inactive:
CC(=O)Nc1ccc(C(=O)Cn2c3[n+](c4c(F)c(F)ccc42)CCCCC3)cc1 -2.23%
O=C(CN(Cc1ccccc1F)C(=O)c1csnn1)NCc1ccc2c(c1)OCO2 19.1%
O=c1oc2cc(OCc3ccc(F)cc3F)ccc2cc1-c1ccccn1 12.7%
CSc1nnc(C)c(=O)n1COC(=O)COc1ccc(Cl)cc1Cl 0.908%
CCCCc1ccc(Nc2nc(CCC)cc(=O)[nH]2)cc1 29.7% [at 0.365 µM]
O=C1C2C(c3ccccc3)CC=CC2C(c2ccc3ccccc3c2)N1Cc1ccccc1 (centres undefined) 41.5%
COc1ccc(C2CCCN2CC(O)COc2ccccc2C(C)C)cc1 (centres undefined) 0.594%
CCOC(=O)c1cc(-c2ccccc2)n(CC(=O)Nc2ccc(OC)c(OC)c2)c1C -16.4%
O=C(Nc1nnc(-c2ccco2)o1)c1cccc(N2C(=O)CCC2=O)c1 -33.4%
O=C(CC(C(=O)NCc1ccccc1)c1nc2ccccc2c(=O)[nH]1)NCc1ccccc1 (centres undefined) 5.47%
COC(=O)[C@H](Cc1ccccc1)NC(=O)[C@@H](C)CO 10.2% [at 10 µM]
COc1ccccc1C(=O)C1CCCN(Cc2ccc(Oc3ncccn3)cc2)C1 (centres undefined) 34.6%
O=C(NC1CCSC1=O)c1ccccc1 (centres undefined) -1.83%
Cc1cc(CNC(=O)Cn2cc([N+](=O)[O-])cn2)c2ccccc2n1 4.19%
Cc1nn(-c2ccccc2)c(N2CCCC2)c1/C=C1\N=C(c2ccc(F)cc2)OC1=O -15.6%
Cc1c(-c2nc(-c3ccncc3)no2)cccc1[N+](=O)[O-] 22.9%
COCCn1c(=O)c(-c2cc(F)cc(F)c2)nc2cnc(Nc3cccc(OC)c3)nc21 -0.804%
O=C(c1ccc(CSc2nc3ccncc3[nH]2)cc1)N1CCCCC1 11.9%
CCCCC(=O)Nc1ccc(C(=O)Nc2ccc(S(=O)(=O)Nc3nccc(C)n3)cc2)cc1 36.1%
CC(=O)N1CCN(CC(=O)Nc2ccccc2C(=O)NCc2ccc(C)cc2)CC1 23.6%
O=C(NC1CCCCC1)C(c1ccc(F)cc1)N(Cc1cccs1)C(=O)CN1C(=O)c2ccccc2S1(=O)=O (centres undefined) -41.2%
CC(/C=C/c1ccccc1)=N\Nc1ccccc1[N+](=O)[O-] 28.2%
NC(=O)C1CCN(C(=O)CN(C2CCCCC2)S(=O)(=O)c2ccc(F)cc2)CC1 -3.06%
NC(=O)c1ccc(NC(=S)NCc2ccco2)cc1 10.7%
Cc1nc(-c2ccccn2)nc(N2CCOCC2)c1Cl 35.2%
CC(C)[C@@H](CC(=O)N[C@@H]1CCNC[C@H]1C(=O)N[C@H](CC(=O)N[C@@H](CCC(=O)O)CC(=O)O)Cc1ccccc1)NC(=O)C[C@H](Cc1c[nH]c2ccccc12)NC(=O)[C@@H]1CCCC[C@H]1N 9.64%
C=CCN1C(=O)C(Cc2ccccc2)S/C1=N/N=C/c1cccs1 (centres undefined) -10.2%
O=C(COc1ccc2c3c(c(=O)oc2c1)CCC3)Nc1ccc(CCO)cc1 -27.5%
COCc1cc([C@@H]2C[C@H]3CN(c4ccccc4)C(=O)[C@]34CCCN24)ccc1OC 20.6%
CCCOc1ccc2oc(=O)c3c(c2c1)CCCN3C(=O)CN1CCc2ccccc2C1 -9.5% [at 10 µM]

Quoted at random: 5 records from the list
Activity change, negative = inhibition, inactive:
CC(=O)N1CCN(CC(=O)Nc2ccccc2C(=O)NCc2ccc(C)cc2)CC1 23.6%
CCCCc1ccc(Nc2nc(CCC)cc(=O)[nH]2)cc1 29.7% [at 0.365 µM]
O=C(NC1CCCCC1)C(c1ccc(F)cc1)N(Cc1cccs1)C(=O)CN1C(=O)c2ccccc2S1(=O)=O (centres undefined) -41.2%
O=C(CC(C(=O)NCc1ccccc1)c1nc2ccccc2c(=O)[nH]1)NCc1ccccc1 (centres undefined) 5.47%
Cc1nn(-c2ccccc2)c(N2CCCC2)c1/C=C1\N=C(c2ccc(F)cc2)OC1=O -15.6%

Next part.

Potency, inactive:
COC(=O)CCC(=O)OC1(C)C(=O)C=C2C=C(c3ccc(C#N)cc3)OC=C2C1=O (centres undefined)
Cc1c(C)c2c(c(C)c1OC(=O)c1cccnc1)CC[C@@](C)(CCC[C@H](C)CCC[C@H](C)CCCC(C)C)O2

Potency, inconclusive:
CCOc1ncccc1C(=O)N1CCN(c2ccc(C(F)(F)F)cn2)CC1 17.8 µM [activator, single point]
Cc1nn(Cc2c(F)c(F)c(F)c(F)c2F)c(C)c1NC(=O)c1ccc(COc2ccccc2Cl)o1 17.8 µM [activator, partial curve]
O=C(Nc1ccc(S(=O)(=O)N2CCCCC2)cc1)c1ccc(F)cc1 35.5 µM [activator, single point]
Cc1cc(C(C)(C)CC(C)(C)C)ccc1OCCOCC[N+](C)(C)Cc1ccccc1 2.51 µM [activator, partial curve]
O=C(CN1C(=O)/C(=C/c2ccccc2)SC1=S)N1CCN(CCc2ccccn2)CC1 25.1 µM [inhibitor, single point]
Cc1cc2nc(-c3ccc(NC(=O)C(C)C)cc3)oc2cc1C 0.316 µM [inhibitor, full curve, poor fit]
C=CCn1c(NCc2ccccc2OC)nc2ccccc21 35.5 µM [inhibitor, single point]
COc1ccc(NC2=NCC(Cc3ccc(Br)cc3)S2)cc1 (centres undefined) 3.55 µM [inhibitor, full curve, poor fit]
CCn1c(COc2cccc(C)c2)nnc1SCC(=O)N1CCCC1 15.8 µM [activator, partial curve, poor fit]
COc1ccc(-c2cn[nH]c2N)cc1 35.5 µM [inhibitor, single point]
Cc1csc(NC(=O)CSc2nc(C(C)C)nc3c2c(=O)n(C)c(=O)n3C)n1 35.5 µM [activator, single point]
O=[N+]([O-])c1ccc(Cc2nnc(-c3ccccc3Cl)o2)cc1 2.82 µM [inhibitor, full curve, poor fit]
COc1cccc(NC(=O)Cc2ccccc2)c1 11.2 µM [activator, partial curve]
CN(C)CCCN1c2ccccc2CCc2ccc(Cl)cc21 31.6 µM [inhibitor, single point] and 35.5 µM [inhibitor, single point]
Cn1c(C(=O)Nc2ccc3c(c2)OCO3)cc2c(=O)n(C)c3ccccc3c21 0.005 µM [activator, full curve, poor fit]
Cc1cccc(CC(=O)Nc2ccc(C(=O)N3CCCCC3)cc2)c1 14.1 µM [activator, single point]
CN(C)c1cccc(C(=O)OCC(=O)NCc2ccco2)c1 22.4 µM [activator, partial curve, poor fit]
CC(=O)N=c1scc(-c2ccccc2)n1-c1cccc(O)c1 11.2 µM [activator, single point]
Cc1ccc(C)c(-c2cc(C(=O)NCc3cccs3)c3ccccc3n2)c1 5.62 µM [activator, single point]
CN1C(=O)c2ccc(N3CCCC3)cc2C1=O 7.08 µM [activator, partial curve]
CC(C)Cn1c(N)c(C(=O)COC(=O)Cc2cccs2)c(=O)n(C)c1=O 7.94 µM [activator, partial curve]
O=C(Nc1ccc(Cl)c(S(=O)(=O)N2CCOCC2)c1)c1ccc2c(c1)OCCO2 20 µM [activator, single point]
CC(OC(=O)C1CCN(S(=O)(=O)c2ccccc2C(F)(F)F)CC1)C(=O)N(C)Cc1ccccc1 (centres undefined) 10 µM [activator, partial curve]
COc1ccc(C(=O)NCCc2cccc(Cl)c2)cc1OC1CCN(C(C)=O)CC1 15.8 µM [activator, partial curve, poor fit]
O=C1C2C3C=CC(CC3)C2C(=O)N1/N=C/c1ccc(O)c(O)c1 (centres undefined) 17.8 µM [inhibitor, partial curve, poor fit]
Cc1ccc(NC2c3ncccc3C(=O)N2C2CCCCC2)cc1 (centres undefined) 12.6 µM [activator, partial curve]
CC(=O)Nc1ccc(Nc2cc(C)nc3c(-c4ccccc4)c(C)nn23)cc1 20 µM [inhibitor, single point]
COc1ccc(N2C(=O)c3ccc(C(=O)OC(C)C)cc3C2=O)cc1 0.355 µM [inhibitor, single point]
Nc1ncnc(Oc2ccccc2F)c1[N+](=O)[O-] 22.4 µM [inhibitor, single point]
CCOC(=O)Nc1ccc2c(c1)N(C(=O)CN1CCN(CCO)CC1)c1ccccc1CC2 3.16 µM [activator, partial curve]

Potency, active:
O=c1c2ccccc2[nH]c(=S)n1CCN1CCc2ccccc2C1 11.2 µM
Cc1cc(C)c(NC(=S)NC(=O)c2ccc(-c3ccccc3)cc2)c(C)c1 4.47 µM
Nc1nonc1-n1nnc(C(=O)N/N=C/c2ccc(OCc3ccc(F)cc3)cc2)c1COc1ccccc1 7.08 µM
O=C1C=Cc2ccccc2/C1=C/c1[nH]c(=O)[nH]c1O 6.31 µM
O=C(Cc1ccc([N+](=O)[O-])cc1)N1N=C(C2CC2)CC1(O)C(F)(F)F (centres undefined) 15.8 µM
CCOc1ccccc1NC(=S)N1CCN(c2ccc(OC)cc2)CC1 11.2 µM
COc1ccc(-n2c(C)nc3cc(C(=O)N4CCOCC4)ccc32)cc1 2 µM
COc1ccc2nc(NC(=O)c3cccc(-c4cc5ccccc5oc4=O)c3)sc2c1 10 µM
O=S(=O)(c1ccc(NC(=S)N/N=C/c2ccc(Oc3ccccc3)cc2)cc1)N1CCOCC1 0.501 µM
COc1ccc(O)c(/C=N/NC(=S)Nc2cccnc2)c1 6.31 µM
C=C(C)CNC(=S)N/N=C(\C)c1cccc(NC(C)=O)c1 10 µM
